# Test results published in patent US20240240191.
# Columns and labels:
# alpha-synuclein oligomer = alpha-synuclein oligomer (UniProt P37840); test: binding assay; details: CITED Tsukakoshi et al.; label: 32P; single-stranded DNA
# amyloid-beta 40 oligomer = amyloid-beta 40 oligomer (UniProt P05067); test: binding assay; details: CITED Tsukakoshi et al.; label: 32P; single-stranded DNA
# [1] = biological target: alpha-synuclein fibril, R-type conformer (ribbons) (UniProt P37840); test: FP filter; details: purified recombinant protein, protein details: R-type (ribbon) fibril polymorph
# [2] = biological target: alpha-synuclein fibril, F-type conformer (fibrils) (UniProt P37840); test: FP filter; details: purified recombinant protein; protein details: F-type (cylindrical) fibril polymorph; label: 32P; single-stranded DNA
# Tau 441 = test: binding assay; details: CITED Lisi et al. 2018; +/-3; label: 32P; single-stranded DNA
# Tau 383 = test: binding assay; details: CITED Lisi et al. 2018; +/-4; label: 32P; single-stranded DNA
# Tau 352 = test: binding assay; details: CITED Lisi et al. 2018; +/-6; label: 32P; single-stranded DNA
# Tau 381 = test: binding assay; details: CITED Lisi et al. 2018; +/-6; label: 32P; single-stranded DNA
# [3] = biological target: alpha-synuclein fibril, 91 conformer (UniProt P37840); test: FP filter; details: 2'-F on all pyrimidines, purified recombinant protein, protein details: fibril polymorph 91
# [4] = biological target: alpha-synuclein fibril, 65 conformer (UniProt P37840); test: FP filter; details: 2'-F on all pyrimidines, purified recombinant protein, protein details: fibril polymorph 65 (text also prints 61)
# alpha-synuclein monomer [5] = biological target: alpha-synuclein monomer (UniProt P37840); test: FP filter; details: 2'-F on all pyrimidines; purified recombinant protein; label: 32P SpG-LNA oligo hybridized to 3' G sequence
# alpha-synuclein monomer [6] = biological target: alpha-synuclein monomer (UniProt P37840); test: binding assay; details: 2'-F on all pyrimidines; Sp6 exclusion column; purified recombinant protein; label: 32P SpG-LNA oligo hybridized to 3' G sequence; counted as no binding
# [7] = label: 32P, single-stranded DNA
# [8] = 2'-F on all pyrimidines, label: 32P oligo hybridized to 3' G sequence
# [9] = label: 32P oligo hybridized to 3' G sequence
# [10] = 2'-F on all pyrimidines, label: 32P SpG-LNA oligo hybridized to 3' G sequence
# [11] = label: 32P SpG-LNA oligo hybridized to 3' G sequence
Sequence,"binding result [1, 8]","binding result [3, 9]","binding result [4, 9]",other results
ATACTGCCATTCATTTCATTTGCCTGTGGTGTTGGGGCGGGTGCGTTTAGATATCAGCATGTGTCA [T-SO508],–,–,–,Kd (alpha-synuclein oligomer): 68 nM; Kd (amyloid-beta 40 oligomer): 25 nM
ATAGTCCCATCATTCATTGTATGGTACGGCGCGGTGGCGGGTGCGTGGAGATATTAGCAAGTGTCA [M5-15],–,–,–,"binding result [1, 7]: no binding; binding result [2]: no binding"
ATCGAGTGGACGAGTGCCTCCGGTACGAGCTGTCTGATGGGTTTGCGCGCAGGATCCA [F5R2],–,–,–,"binding result [1, 7]: no binding; binding result [2]: no binding"
ATCGAGTGTGTACGGGGTCCGGTAGGGTGGCGAGGTCTTCCTGTCGTAGCAGGATCCA [F5R1],–,–,–,"Kd [1, 7]: 32.4 nM; Kd [2]: 3.5 nM"
GCCTGTTGTGAGCCTCCTGTCGAACCTTTGGGGTGGCTTGACGAAGAAAGTAGTTGAGCGTTTATTCTTGTCTCCC [Tau 3146],–,–,–,Kd (Tau 441): 13 nM; Kd (Tau 383): 49 nM; Kd (Tau 352): 84 nM; Kd (Tau 381): 116 nM
GGGAGAGUAUCCGUUGAGGCUGACAACGCGUUUACCUCACACCACGUCAUCCGUUGCCAGAUCGGAAGAGCGUCGUGUAGGGCAUUGCCCCAGCGUGACUGCCUA [N3-G],binds more weakly,binds more weakly,binds more weakly,–
GGGAGAGUAUCCGUUGAGGCUGAUCCGACCAUGCUUCAACUUAUACCUCGGGGACUGUAGAUCGGAAGAGCGUCGUGUAGGGCAUUGCCCCAGCGUGACUGCCUA [N124-G],–,–,–,"binding result [1, 10]: no binding; binding result [3, 11]: binds more weakly; binding result (alpha-synuclein monomer [5]): no binding; binding result [4, 11]: binds more weakly"
GGGAGAGUAUCCGUUGAGGCUGAUCGAUCCACGUCCGACAACGCGUUUACUCGCCAUCAGAUCGGAAGAGCGUCGUGUAGGGCAUUGCCCCAGCGUGACUGCCUA [N30-G],–,–,–,"binding signal (% eluted in SDS fraction) (alpha-synuclein monomer [6]): 1.1; binding result [1, 10]: no binding; binding result [3, 11]: binds more weakly; binding result (alpha-synuclein monomer [5]): no binding; binding result [4, 11]: binds more weakly"
GGGAGAGUAUCCGUUGGAGGCAUAGCAGCACACGACCAGUGUGCCCCACACCCAGUGGUGGUCUGUGGUGUGCAGAUCGGAAGAGCGUCGUGUAGGGCAUUGCCCCAGCGUGACUGCCUA [4F01-G],binds more weakly,binds more weakly,binds more weakly,–
GGGAGAGUAUCCGUUGGAGGCAUCACGGACACCUACCCGACGGCAUGUCAGGACACAUGUUGUGCUCCGUGUGAGAUCGGAAGAGCGUCGUGUAGGGCAUUGCCCCAGCGUGACUGCCUA [F124-G (PF_124)],binds more weakly,binds more weakly,binds more weakly,–
GGGAGAGUAUCCGUUGGAGGCAUCGCACAGUGUACACCUACACACAGCAUACCUGUUGGCAUCCCAGGUUGCCAGAUCGGAAGAGCGUCGUGUAGGGCAUUGCCCCAGCGUGACUGCCUA [P65-G (P65_10854)],binds more weakly,binds more weakly,binds more weakly,–
GGGAGAGUAUCCGUUGGAGGCAUGCAACAGACGCACCGUACACACAUCUUGGCCGUUGGCUGCCCGACCAGCCAGAUCGGAAGAGCGUCGUGUAGGGCAUUGCCCCAGCGUGACUGCCUA [4F03-G],binds more weakly,binds more weakly,binds more weakly,–
GGGAGAGUAUCCGUUGGAGGCAUGCCGCAGGCUACACCACAGCUUCCCCUUCAGCGUGUUGUGGAUACUCGGCAGAUCGGAAGAGCGUCGUGUAGGGCAUUGCCCCAGCGUGACUGCCUA [4F05-G],binds more weakly,binds more weakly,binds more weakly,–
GGGAGAGUAUCCGUUGGAGGCAUGCUGGCAGCACGCACCGCUGACCGCUGGCUGCACUAUGCGUGUGGAGUGCAGAUCGGAAGAGCGUCGUGUAGGGCAUUGCCCCAGCGUGACUGCCUA [4F02-G],binds more weakly,binds more weakly,binds more weakly,–

# For part of these data: Negatives hold for the conditions tested. For part of these data: A weaker result is weaker than the reference pair of the same experiment. For part of these data: The exact form of at least one protein or probe is not confirmed. For part of these data: Whether high values mean tight binding is not given here for every scale.
